Several values for one entry are separate records, joined by “and”; a condition that tells them apart may be missing. Equal entries are not always repeated. Where two headings read alike, the source gives them in different places. Part of at least one peptide drawing is inferred or uncertain, most often the ends. Where a SMILES comes first, the peptide text is derived from it. Bridges are numbered along the chain shown (N, C = ends). Where no end group is shown, it is not given here.
Tests used:
HIV-1 RT [1] = biological target: T1, HIV-1 RT (Human immunodeficiency virus type 1 group M subtype B, UniProt P03366); type: biochemical
T1 construct: The heterodimeric p66/p51 RT was eluted with an imidazole gradient; p66 and p51 derived from p66 by proteolytic cleavage of the C-terminal RNAse H domain; made in house; host or cells: E. coli (M15 for the His-tagged subunits)
Description: RNA-dependent-DNA RT-polymerase activity was measured in a standard reaction assay using poly(rA)-(dT)15 as template/primer as described in Restle et al. (1990). Ten microliters of reverse transcriptase (RT) at 20 nM was incubated at 37° C. for 30 min with 20 μL of reaction buffer (50 mM Tris, pH 8.0, 80 mM KCl, 6 mM MgCl2, 5 mM DTT, 0.15 μM poly(rA-dT), 15 μM dTTP, 0.3 μCi 3H-dTTP). For peptide evaluation, HIV-1 RT was incubated with increasing concentrations of peptide inhibitors for […], and polymerase reaction was initiated by adding reaction buffer. Reactions were stopped by precipitation of nucleic acids with 5 ml of 20% trichloroacetic acid (TCA) solution for 2 h on ice, then filtered using a multiwell-sample collector (Millipore), and washed with 5% TCA solution. Filters were dried at 55° C. for 30 min and radionucleotide incorporation was determined by liquid scintillation spectrometry.
A series of peptides have been derived from Pep-A sequence (SEQ ID NO: 28), which is derived from HIV-1 reverse transcriptase. First, P1 peptide (SEQ ID NO: 1) was obtained by removing the N-terminal arginine of Pep-A. Then, additional peptides were generated by performing an alanine scan on P1. P1-derived peptides were evaluated using a standard polymerase RT assay. Reported data correspond to the mean of three separate experiments.

HIV-1 integrase [2] = biological target: T2, HIV-1 integrase (Human immunodeficiency virus type 1 group M subtype B, UniProt P04585); conditions: read-out: Kd IN binding; Table 10
T2 construct: Integrase is a 32 kDA viral protein that is biologically active under a multimeric form
Description: Fluorescein-labeled peptides (40 nM) were mixed with varying concentrations of integrase in 20 mM Tris pH 7.2, 50 mM NaCl, 10 mM MgCl2, and the r values were recorded.
Effect of the different peptides on the integrase (IN) activity, DNA binding and IN/DNA dissociation were evaluated as described in Example III.1 above, using fluorescence polarization and anisotropy measurements. Binding constant of the peptide for IN was determined by steady state fluorescence and anisotropy.

HIV-1 integrase [3] = biological target: T2, HIV-1 integrase; type: biochemical; conditions: for Ki: read-out: Ki IN 3′processing, Table 10
Description: (§1) The simultaneous measurement of integrase-DNA interaction and subsequent 3′-processing activity by steady-state fluorescence anisotropy was performed as described in Guiot et al. (2006). […] After the initial DNA-binding step (performed at 25° C.), the 3′-processing activity was measured at 37° C. by fixed-time experiments: The reaction was stopped at varying times by adding SDS (0.25% final) which disrupts all IN-DNA complexes in the sample. The IN-mediated cleavage of the terminal GT dinucleotide (labeled by fluorescein on the 3′-end) leads to a significant decrease of r as compared to the r value corresponding to the fluorescein-labeled unprocessed DNA substrate. The fraction of released dinucleotide is calculated by using Eq. (1): […]

HIV-1 RT [4] = biological target: T3, HIV-1 RT (Human immunodeficiency virus type 1 group M subtype B, UniProt P12497); experiment: RT pull-down with peptide-CNBr Sepharose beads, H9 cell lysates; type: binding; conditions: Western blotting
T3 construct: asymmetric heterodimer that consists of two subunits, p66 and p51; expressed in transfected cells; host or cells: H9 cells (ATCC HTB-176) stably transfected with pNL4.3 V-R+
Description: For RT pull down experiments, PAW (SEQ ID NO: 18) was incubated with 500 μl of activated CNBr-activated Sepharose 4B beads at 4° C. overnight. After centrifugation, supernatants were removed and the beads were incubated with Glycine pH.8.0 for 2 hrs at 4° C. with gentle stirring. The beads were then washed with 0.1 M sodium acetate buffer (pH 4.0), then 0.5 M Bicarbonate buffer, and finally in PBS, three times each. The peptide bound to the beads were then saturated for 30 min in PBS/BSA 0.1% and then incubated for 1 h at 4° C. with equal amounts of H9 cells lysed for […] on ice in Lysis buffer (Tris 20 mM, pH 7.2, NaCl 400 mM, EDTA 1 mM, DTT 1 mM, Protease inhibitors EDTA free) and sonicated 2×5 sec. at 20%. Beads were washed with Lysis buffer then twice with PBS and the bound proteins were finally separated on 15% SDS-PAGE gel and analyzed by Western Blotting using monoclonal 8C4 anti-HIV-1 RT antibody.

p66^F61Gly/p51^wt = biological target: T4, p66^F61Gly/p51^wt (Human immunodeficiency virus type 1 group M subtype B, UniProt P03366, F660G); experiment: Steady-state fluorescence titration, PAW binding to mutant RT F61G; design: species or system HIV-1
T4 construct: Bacterial cultures expressing His-tagged p66 subunit were mixed with cultures expressing His-tagged p51 subunit; His; made in house; host or cells: E. coli M15

p66^DM/p51^wt = biological target: T5, p66^DM/p51^wt (Human immunodeficiency virus type 1 group M subtype B, UniProt P03366, F660G/W623G); experiment: Steady-state fluorescence titration, PAW binding to double mutant RT; design: species or system HIV-1
T5 construct: Bacterial cultures expressing His-tagged p66 subunit were mixed with cultures expressing His-tagged p51 subunit; His; made in house; host or cells: E. coli M15

HIV-1 RT [5] = biological target: T1, HIV-1 RT; experiment: Effect of PAW on primer/template binding to RT, steady state; conditions: PAW 10 μM
HIV-1 RT [6] = biological target: T1, HIV-1 RT; experiment: Stopped-flow kinetics of primer/template binding to RT/PAW; conditions: in the presence of PAW
heterodimeric RT = biological target: T6, heterodimeric RT (Human immunodeficiency virus type 1 group M subtype B, UniProt P03366); experiment: Size exclusion chromatography of RT dimerization and stability; design: species or system HIV-1
T6 construct: The heterodimeric p66/p51 RT was eluted with an imidazole gradient; p66 and p51 derived from p66 by proteolytic cleavage of the C-terminal RNAse H domain; made in house; host or cells: E. coli (M15 for the His-tagged subunits)

HIV-1 RT [7] = biological target: T1, HIV-1 RT; experiment: RT dissociation kinetics with bis-ANS, stopped flow; conditions: relative to RT without PAW
Description: Dissociation kinetics of HIV-1 RT were monitored by using 4,4′-Bis(1-anilinonaphthalene 8-sulfonate (bis-ANS) as extrinsic probe. Changes in bis-ANS fluorescence provide a good signal to probe variation in the exposure of the hydrophobic regions associated to RT dissociation in a time-dependent manner. 0.5 μM of RT was dissociated in presence of 0.8 μM of bis-ANS, by adding 10% acetonitrile in the absence or in the presence of 10 μM PAW. Kinetics of dissociation were monitored by following fluorescence resonance energy transfer between tryptophan residues of RT and bis-ANS. Excitation of RT-Trp residues was performed at 290 nm and the increase of bis-ANS fluorescence emission at 490 nm was detected through a 420 nm cut-off filter. Data acquisition and analysis were performed using KinetAsyst 3 software (Hi-Tech Scientific, Salisbury, England-UK) and traces were fitted according to a single exponential equation.

HIV-1 integrase [8] = biological target: T7, HIV-1 integrase (Human immunodeficiency virus type 1 group M subtype B, UniProt P12497); experiment: Integrase pull-down with CNBr Sepharose beads; type: binding; conditions: H9 or HeLa HA-IN cell lysates, western blotting
T7 construct: expressed in transfected cells; host or cells: H9 cells with pNL4.3 V-R+; HeLa cells stably expressing HA-tagged IN
Description: Peptides were resuspended in buffer A (1 mg/ml), sonicated 4 min, and incubated with 500 μl (gel volume) of activated CNBr-activated Sepharose 4B sepharose© beads at 4° C. overnight. After centrifugation, supernatants were removed and the beads were incubated with Glycine pH.8 for 2 hours at 4° C. with gentle stirring. The sedimented Sepharose beads were then washed in 0.1 M Sodium Acetate buffer (pH 4), 0.5 M Bicarbonate buffer, and finally in PBS, three times each. The peptides bound to the beads were then saturated for 30 minutes in PBS BSA 0.1% and then incubated for 1 h at 4° C. with equal amounts of cell lysate (H9 or Hela-IN) prealably lysed for 30 min on ice in Lysis buffer (Tris 20 mM, pH 7.2, NaCl 400 mM, EDTA 1 mM, DTT 1 mM, Protease inhibitors EDTA free (Roche Diagnostics) and sonicated twice for 5 sec. at 20%. Beads were washed once in Lysis buffer, and twice in PBS. They were finally resuspended in Laemli blue, migrated on 15% SDS-PAGE gels and analysed by Western Blotting.

IN/DNA complexes [9] = biological target: T8, IN/DNA complexes (Human immunodeficiency virus type 1 group M subtype B, UniProt P04585); experiment: DNA-binding of integrase, fluorescence anisotropy; type: biochemical, HIV-1
Description: as §1

IN/DNA complexes [10] = biological target: T8, IN/DNA complexes; experiment: Dissociation of pre-formed IN-DNA substrate complexes; type: biochemical, HIV-1
Description: For dissociation experiments, IN-DNA substrate complexes were pre-formed at 25° C. before addition of peptides. The peptide-mediated dissociation of complexes was then studied at the same temperature by measuring the decrease in the r value as a function of time.

HIV-1 integrase [11] = biological target: T2, HIV-1 integrase; experiment: IN oligomerization
IN/LEDGF complex = IN/LEDGF complex (Human immunodeficiency virus type 1 group M subtype B, UniProt P04585); experiment: Dissociation of IN/LEDGF complex (AlphaScreen, immunoprecipitation); type: biochemical; conditions: read-out: EC50 (μM) IN/LEDGF dissociation; Table 9
Description: Dissociation of IN/LEDGF complex was measured by fluorescence resonance energy transfer (AlphaScreen® technology) and immunoprecipitation experiments: • Amplified Luminescent Proximity Homogeneous Assay (ALPHA): when the proteins (IN and LEDGF), linked to acceptor and donor beads, interact together (i.e., are into close proximity), a photosignal (a high amplified signal with output in the 520-560 nm range) is detected; when the proteins are not in close proximity, the reactive oxygen decays and there is no detectable signal generated; • immunoprecipitation (IP) was performed using polyclonal anti LEDGF antibodies (purchased from Santa Cruz Biotechnology, USA) and polyclonal HA antibodies (purchased from Eurogentec, Belgium). Cell line expression HA-tagged integrase was using for the experiment in the presence of increasing concentrations of peptide inhibitors.

[12] = read-out: Ki RT polymerase, Table 10

CC[C@H](C)[C@@H]1NC(=O)[C@H](Cc2c[nH]c3ccccc23)NC(=O)[C@H](CCC(=O)O)NC(=O)[C@H]([C@@H](C)O)NC(=O)[C@H](CC(C)C)NC(=O)[C@H](Cc2c[nH]c3ccccc23)NC(=O)[C@H](CCCCN)NC(=O)[C@@H](NC(=O)CN)CSSC[C@@H](C(=O)O)NC(=O)[C@H](CCC(=O)O)NC(=O)[C@H](C)NC(=O)[C@H](CCC(=O)O)NC(=O)[C@H](C)NC(=O)[C@H]([C@@H](C)O)NC(=O)[C@H](CC(C)C)NC(=O)[C@@H]2CCCN2C1=O [PAW-C2] (H-GCKWLTEWIPLTAEAEC-OH; disulfide 2-17; N-terminus and C-terminus assumed)
Ki (HIV-1 RT [1]; [12]): 1.4 µM
Kd (HIV-1 integrase [2]): 0.12 µM
Ki (HIV-1 integrase [3]): 8 µM

GTKWLTEWIPLTAEAE-NH2 [PAW]
Ki (HIV-1 RT [1]; read-out: Ki (μM), inhibition of polymerase activity of HIV-1 RT, Dixon plot, mean of three separate experiments): 0.7 µM
Ki (HIV-1 RT [1]; [12]): 0.7 µM
improvement of peptide efficiency in comparison to P6 (HIV-1 RT [1]; relative to P6): 10 fold
increase in potency to inhibit RT polymerase over Pep-A (HIV-1 RT [1]; relative to Pep-A): 50 fold
stable complex with RT, retention of RT on beads (HIV-1 RT [4]): able to form stable complex with RT
reduction of affinity in comparison to wild type RT (p66^F61Gly/p51^wt): 6 fold
reduction of affinity in comparison to wild type RT (p66^DM/p51^wt): 4.5 fold
decrease of affinity of labelled-p/t for RT (HIV-1 RT [5]): 4.5 fold
k2, rate constant of slow conformational step (HIV-1 RT [6]): 1.99 s⁻¹
k3, rate constant of slow conformational step (HIV-1 RT [6]): 0.22 s⁻¹
k+1, on rate of first step of RT-p/t binding (HIV-1 RT [6]): 1.05.10^8 M^−1·s^−1
k−1, off rate of first step of RT-p/t binding (HIV-1 RT [6]): 7.9 s⁻¹
effect on RT dimerization (in words) (heterodimeric RT; 100 μM PAW, 5 hrs after dilution): does not block RT dimerization
effect on RT dissociation (in words) (heterodimeric RT; RT incubated with PAW 1 h30): does not induce RT dissociation
binding to monomeric p66 or p51 (heterodimeric RT; RT/PAW partially dissociated by 10% acetonitrile): does not bind monomeric p66 or p51 subunits
reduction of kdis (HIV-1 RT [7]): 3.8 fold
interaction with IN in pull-down (HIV-1 integrase [8]): able to interact with cellular HA-tagged IN
3′-processing activity at fixed concentration (HIV-1 integrase [3]; 100 μM PAW): totally abolished
EC50 (HIV-1 integrase [3]; read-out: EC50 (μM) 3′processing, Table 9): 12 µM
IC50 (HIV-1 integrase [3]; read-out: IC50 3′-proc, fluorescence anisotropy): 12.7 µM and 15.2 µM
Ki (HIV-1 integrase [3]): 12 µM
EC50 (IN/DNA complexes [9]; read-out: EC50 (μM) IN/DNA binding, Table 9): 10 µM
IC50 (IN/DNA complexes [9]; read-out: IC50 DNA-binding, number of IN/DNA complexes): 15.2 µM
dissociation of preformed IN-DNA complexes (in words) (IN/DNA complexes [10]; 20, 50, 80 μM PAW): effectively dissociates preformed complexes
EC50 (IN/DNA complexes [10]; read-out: EC50 (μM) IN/DNA dissociation, Table 9): 15 µM
effect on IN oligomer integrity (HIV-1 integrase [11]): no effect
EC50 (IN/LEDGF complex): 2 µM

— patent publication US20110294728A1, “Antiviral Polypeptides” (priority 2008, published 2011)
